# Results reported in the supplement of paper PMC8728848.
# The list shows a part of the results.
# B1: PX14343F-bfa-562-20-562 (Bacteroides fragilis) (protein)
# chain: CDDFLDSFPQDTVTNENFWKSKEDADKVLVDIYASLLPKDAIFFDEAMSDNAYLVWDWWGGAQQVANGSYTTSGEIPTNRWNGSYEVIRKCWFLLEGIEKIEDISEQDKNKIIGETYFMLAYNYYVLTSYFGDVPLVTKTLAIPESKQLVRTPKAEVVDYAINKLKEAAVMLEGLSQEKGRVTADACRFLIARMYLYNGDYSNVLETVKLLEGKYQLYREGDTPYEDLFSGVAENSCEVILSVVCDKRVGEIYTSHGGNGIMLLKGITGEDPYRGVTPSGSLVDAYPMADGRLIHEAGSSYDPKKPYEGRDPRFYQSIVYPTGQIKYLDVETGTVKERLYDPEDPTTVPEHQYNYSQPSATGYMWNKYIDYSVYAMNSVWDCTNDIIVFRYADVLLMKAEALLQTKGESAKEEVCNLIDQLRDRCSCGRVHRENYNSKDELMELLKNERRIELANEGLRYMDLIRWKDAEKNTIVTGVGLTGQMYGAYMRKDGVGKDDKTVDVDNTPRRYIETRYFNASKGYLFPIPQKERDLNPNLTQNPNW
# Key:
# Assay in all cases: glycan array binding signal (z-score within array); higher = stronger binding
# Settings in all cases: glycan notation: IUPAC condensed, linker removed
# [1] = target: Fuc(a1-2)[Gal(a1-3)]Gal(b1-4)GlcNAc(b1-2)Man(a1-3)[Fuc(a1-2)[Gal(a1-3)]Gal(b1-4)GlcNAc(b1-2)Man(a1-6)]Man(b1-4)GlcNAc(b1-4)[Fuc(a1-6)]GlcNAc
# Summary of the method: (§1)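 Columns mapping to the same glycan were averaged after glycan names were converted to IUPAC-condensed notation. The data come from 3228 arrays in the Consortium for Functional Glycomics database, limited to those with an available protein sequence. Binding is reported as a within-array Z-score averaged across arrays of one protein sequence and across linkers.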
# [2] = target: Fuc(a1-2)[Gal(a1-3)]Gal(b1-4)GlcNAc(b1-3)GalNAc
# Summary of the method: as §1
# [3] = target: Fuc(a1-2)[Gal(a1-3)]Gal(b1-4)GlcNAc(b1-3)[Fuc(a1-2)[Gal(a1-3)]Gal(b1-4)GlcNAc(b1-6)]GalNAc
# Summary of the method: as §1
# [4] = target: Fuc(a1-2)[Gal(a1-3)]Gal(b1-4)GlcNAc(b1-6)GalNAc
# Summary of the method: as §1
# [5] = target: Fuc(a1-2)[Gal(a1-3)]Gal(b1-4)[Fuc(a1-3)]Glc
# Summary of the method: as §1
# [6] = target: Fuc(a1-2)[Gal(a1-3)]Gal(b1-4)[Fuc(a1-3)]GlcNAc
# Summary of the method: as §1
# [7] = target: Fuc(a1-2)[Gal(a1-3)]Gal(b1-4)[Fuc(a1-3)]GlcNAc(b1-3)GalNAc
# Summary of the method: as §1
# [8] = target: Fuc(a1-2)[Gal(a1-4)]Gal(b1-4)GlcNAc
# Summary of the method: as §1
# [9] = target: Fuc(a1-2)[GalNAc(a1-3)]Gal
# Summary of the method: as §1
# [10] = target: Fuc(a1-2)[GalNAc(a1-3)]Gal(b1-3)GalNAc(a1-3)[Fuc(a1-2)]Gal(b1-4)GlcNAc
# Summary of the method: as §1
# [11] = target: Fuc(a1-2)[GalNAc(a1-3)]Gal(b1-3)GalNAc(b1-3)Gal(a1-4)Gal(b1-4)Glc
# Summary of the method: as §1
# [12] = target: Fuc(a1-2)[GalNAc(a1-3)]Gal(b1-3)GlcNAc
# Summary of the method: as §1
# [13] = target: Fuc(a1-2)[GalNAc(a1-3)]Gal(b1-3)GlcNAc(b1-2)Man(a1-3)[Fuc(a1-2)[GalNAc(a1-3)]Gal(b1-3)GlcNAc(b1-2)Man(a1-6)]Man(b1-4)GlcNAc(b1-4)GlcNAc
# Summary of the method: as §1
# [14] = target: Fuc(a1-2)[GalNAc(a1-3)]Gal(b1-3)GlcNAc(b1-2)Man(a1-3)[Fuc(a1-2)[GalNAc(a1-3)]Gal(b1-3)GlcNAc(b1-2)Man(a1-6)]Man(b1-4)GlcNAc(b1-4)[Fuc(a1-6)]GlcNAc
# Summary of the method: as §1
# [15] = target: Fuc(a1-2)[GalNAc(a1-3)]Gal(b1-3)GlcNAc(b1-3)GalNAc
# Summary of the method: as §1
# [16] = target: Fuc(a1-2)[GalNAc(a1-3)]Gal(b1-3)GlcNAc(b1-6)GalNAc
# Summary of the method: as §1
# [17] = target: Fuc(a1-2)[GalNAc(a1-3)]Gal(b1-4)Glc
# Summary of the method: as §1
# [18] = target: Fuc(a1-2)[GalNAc(a1-3)]Gal(b1-4)GlcNAc
# Summary of the method: as §1
# [19] = target: Fuc(a1-2)[GalNAc(a1-3)]Gal(b1-4)GlcNAc(b1-2)Man
# Summary of the method: as §1
# [20] = target: Fuc(a1-2)[GalNAc(a1-3)]Gal(b1-4)GlcNAc(b1-2)Man(a1-3)[Fuc(a1-2)[GalNAc(a1-3)]Gal(b1-4)GlcNAc(b1-2)Man(a1-6)]Man(b1-4)GlcNAc(b1-4)GlcNAc
# Summary of the method: as §1
# [21] = target: Fuc(a1-2)[GalNAc(a1-3)]Gal(b1-4)GlcNAc(b1-2)Man(a1-3)[Fuc(a1-2)[GalNAc(a1-3)]Gal(b1-4)GlcNAc(b1-2)Man(a1-6)]Man(b1-4)GlcNAc(b1-4)[Fuc(a1-6)]GlcNAc
# Summary of the method: as §1
# [22] = target: Fuc(a1-2)[GalNAc(a1-3)]Gal(b1-4)GlcNAc(b1-3)Gal(b1-4)GlcNAc
# Summary of the method: as §1
# [23] = target: Fuc(a1-2)[GalNAc(a1-3)]Gal(b1-4)GlcNAc(b1-3)Gal(b1-4)GlcNAc(b1-3)Gal(b1-4)GlcNAc
# Summary of the method: as §1
# [24] = target: Fuc(a1-2)[GalNAc(a1-3)]Gal(b1-4)GlcNAc(b1-3)GalNAc
# Summary of the method: as §1
# [25] = target: Fuc(a1-2)[GalNAc(a1-3)]Gal(b1-4)GlcNAc(b1-3)[Fuc(a1-2)[GalNAc(a1-3)]Gal(b1-4)GlcNAc(b1-6)]GalNAc
# Summary of the method: as §1
# [26] = target: Fuc(a1-2)[GalNAc(a1-3)]Gal(b1-4)GlcNAc(b1-6)GalNAc
# Summary of the method: as §1
# [27] = target: Fuc(a1-2)[GalNAc(a1-3)]Gal(b1-4)[Fuc(a1-3)]GlcNAc
# Summary of the method: as §1
# [28] = target: Fuc(a1-2)[GalNAc(a1-3)]Gal(b1-4)[Fuc(a1-3)]GlcNAc(b1-3)GalNAc
# Summary of the method: as §1
# [29] = target: Fuc(a1-2)[GalNAc(a1-4)]Gal(b1-4)GlcNAc
# Summary of the method: as §1
# [30] = target: Fuc(a1-2)[GalNAc(b1-3)]Gal
# Summary of the method: as §1
binder,measurement,setting,value
B1,glycan array binding signal (z-score),[1],-0.217
same,glycan array binding signal (z-score),[2],-0.274
same,glycan array binding signal (z-score),[3],-0.018
same,glycan array binding signal (z-score),[4],-0.68
same,glycan array binding signal (z-score),[5],0.072
same,glycan array binding signal (z-score),[6],-0.524
same,glycan array binding signal (z-score),[7],0.15
same,glycan array binding signal (z-score),[8],1.24
same,glycan array binding signal (z-score),[9],0.005
same,glycan array binding signal (z-score),[10],-0.953
same,glycan array binding signal (z-score),[11],0.449
same,glycan array binding signal (z-score),[12],-0.441
same,glycan array binding signal (z-score),[13],-0.384
same,glycan array binding signal (z-score),[14],0.403
same,glycan array binding signal (z-score),[15],0.067
same,glycan array binding signal (z-score),[16],-0.2
same,glycan array binding signal (z-score),[17],-0.591
same,glycan array binding signal (z-score),[18],0.215
same,glycan array binding signal (z-score),[19],0.033
same,glycan array binding signal (z-score),[20],1.03
same,glycan array binding signal (z-score),[21],-0.296
same,glycan array binding signal (z-score),[22],-0.718
same,glycan array binding signal (z-score),[23],0.611
same,glycan array binding signal (z-score),[24],-0.295
same,glycan array binding signal (z-score),[25],0.257
same,glycan array binding signal (z-score),[26],-0.301
same,glycan array binding signal (z-score),[27],0.762
same,glycan array binding signal (z-score),[28],0.453
same,glycan array binding signal (z-score),[29],0.081
same,glycan array binding signal (z-score),[30],-0.11

# A run of entries taken from the entries so far, for reference:
binder,measurement,setting,value
B1,glycan array binding signal (z-score),[16],-0.2
same,glycan array binding signal (z-score),[17],-0.591
same,glycan array binding signal (z-score),[18],0.215
same,glycan array binding signal (z-score),[19],0.033
same,glycan array binding signal (z-score),[20],1.03
same,glycan array binding signal (z-score),[21],-0.296
same,glycan array binding signal (z-score),[22],-0.718
same,glycan array binding signal (z-score),[23],0.611
same,glycan array binding signal (z-score),[24],-0.295
